The target of this data set is T1, TRIP4 1-230 (UniProt Q15650).
T1 sequence (looked up): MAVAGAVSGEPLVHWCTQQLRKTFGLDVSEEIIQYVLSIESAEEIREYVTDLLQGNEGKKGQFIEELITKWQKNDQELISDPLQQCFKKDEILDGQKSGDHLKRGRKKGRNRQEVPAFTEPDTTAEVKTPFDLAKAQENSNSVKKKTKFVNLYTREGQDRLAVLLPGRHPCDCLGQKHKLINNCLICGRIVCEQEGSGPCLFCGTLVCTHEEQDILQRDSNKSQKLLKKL
Put plainly: MST. As to conditions: very low affinity, EC50 n.d., dilution series up to 40 uM; MST: 20 mM HEPES-NaOH pH 7.5, 300 mM NaCl, 5% glycerol, 1 mM DTT, room temperature, 50 nM final Cy5-T48; recombinant protein; residues 1-230; protein details: N-terminal His6, TEV-cleaved; label: 5'-Cy5; single-stranded DNA.

Weaker means in comparison with the reference protein, sequence or condition of that experiment. Protein sequences can lack the tags named with them.

For “TTTTTTTTTTTTTTTTTTTTTTTTTTTTTTTTTTTTTTTTTTTTTTTT [T48 (Cy5)]”, the binding result is recorded as “binds more weakly”.

The values are drawn from article PMC10076317, “Extended DNA threading through a dual-engine motor module of the activating signal co-integrator 1 complex” (Nature Communications, 2023).
